Some results were stated once for a whole list of compounds, not compound by compound.
Test system: Wnt3a signaling
Assay: Wnt luciferase reporter assay in HEK293 cells, Wnt3a
Assay type: cell-based
Settings: read-out: IC50 (Wnt3a signaling / LRP6 E3-E4)

R19: LRP6 E1E2-binding EETI-II variant generated in soluble folded form (GCSNRVKVRACKQDSDCLAGCVCGPNGFCG)
IC50: > 44 µM

Reference: patent US11155586B2, “Cystine knot scaffold platform” (Genentech, Inc., priority 2015, dated 2021)
